Results deposited as PubChem BioAssay AID1159584 (Peter MacCallum Cancer Centre, 2016).
Screen: 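Genes that CDH1-null MCF10A cells selectively depend on to survive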 (primary screen). System: human MCF10A breast epithelial cells, parental and CDH1-null. Reagents: siRNA against human genes. Read-out: 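Cell viability by CellTiter-Glo ATP luminescence, each line scaled to the mean of mock wells across plates, then CDH1-null over parental ratio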. Scale: CDH1-null / parental viability ratio: higher = CDH1-null cells survive relatively better than parental; CDH1-null viability vs mock: higher = more viable CDH1-null cells; parental viability vs mock: higher = more viable parental cells.
Shown is one part, drawn at random, of about 18,000 reagents tested. No sequences are given here. Not given: the amount of reagent, the time to read-out.

| target gene | CDH1-null / parental viability ratio | CDH1-null viability vs mock (fraction of mock) | parental viability vs mock (fraction of mock) |
| --- | --- | --- | --- |
| OR10H5 (olfactory receptor family 10 subfamily H member 5) | 1.1 | 1.08 | 0.98 |
| SRSF6 (serine and arginine rich splicing factor 6) | 0.79 | 0.52 | 0.66 |
| ATP2B4 (ATPase plasma membrane Ca2+ transporting 4) | 0.94 | 1.02 | 1.08 |
| OR1C1 (olfactory receptor family 1 subfamily C member 1) | 1.11 | 0.73 | 0.66 |
| ASF1A (anti-silencing function 1A histone chaperone) | 0.82 | 0.78 | 0.95 |
| TRIM74 (tripartite motif containing 74) | 0.93 | 0.84 | 0.9 |
| CSN2 (casein beta) | 0.87 | 0.68 | 0.78 |
| VCAN (versican) | 0.85 | 0.78 | 0.92 |
| SLC1A4 | 1.07 | 1.01 | 0.94 |
| SRSF12 (serine and arginine rich splicing factor 12) | 1.36 | 0.79 | 0.58 |
| CLEC4E (C-type lectin domain family 4 member E) | 0.9 | 1 | 1.11 |
| ST3GAL5 (ST3 beta-galactoside alpha-2,3-sialyltransferase 5) | 0.98 | 0.9 | 0.92 |
| TBR1 (T-box brain transcription factor 1) | 0.99 | 0.73 | 0.74 |
| SPANXN5 (SPANX family member N5) | 0.86 | 0.74 | 0.86 |
| SH3GL3 (SH3 domain containing GRB2 like 3, endophilin A3) | 0.64 | 0.54 | 0.84 |
| CLPTM1 (CLPTM1 regulator of GABA type A receptor forward trafficking) | 1.13 | 1.02 | 0.9 |
| GTF2I (general transcription factor IIi) | 0.85 | 0.82 | 0.96 |
| GSE1 (Gse1 coiled-coil protein) | 1.14 | 0.87 | 0.76 |
| H3C7 (H3 clustered histone 7) | 1.25 | 1.05 | 0.84 |
| MZT2A (mitotic spindle organizing protein 2A) | 0.86 | 0.8 | 0.93 |
| DCLRE1C (DNA cross-link repair 1C) | 0.82 | 0.82 | 1 |
| HLA-A (major histocompatibility complex, class I, A) | 1.27 | 0.94 | 0.74 |
| USP7 (ubiquitin specific peptidase 7) | 1.15 | 0.6 | 0.52 |
| ACOT6 (acyl-CoA thioesterase 6) | 1.11 | 0.88 | 0.79 |
| ETNPPL (ethanolamine-phosphate phospho-lyase) | 1.02 | 0.96 | 0.94 |
| CDC42EP2 (CDC42 effector protein 2) | 0.82 | 0.62 | 0.76 |
| LINC02913 (long independently transcribed non-coding RNA 2913) | 1.08 | 0.7 | 0.65 |
| CYSRT1 (cysteine rich tail 1) | 1.02 | 0.9 | 0.88 |
| OR4K13 (olfactory receptor family 4 subfamily K member 13) | 1.08 | 0.97 | 0.9 |
| PI4KA (phosphatidylinositol 4-kinase alpha) | 0.83 | 0.68 | 0.82 |
| TNFAIP6 (TNF alpha induced protein 6) | 1.03 | 0.66 | 0.64 |
| CD164L2 (CD164 molecule like 2) | 1 | 0.86 | 0.86 |
| EXT2 (exostosin glycosyltransferase 2) | 0.98 | 1.1 | 1.12 |
| SGCA (sarcoglycan alpha) | 0.8 | 0.4 | 0.5 |
| FAM111A (FAM111 trypsin like peptidase A) | 0.97 | 0.68 | 0.7 |
| INPP4B (inositol polyphosphate-4-phosphatase type II B) | 1.13 | 0.76 | 0.67 |
| MCL1 (MCL1 apoptosis regulator, BCL2 family member) | 1.09 | 1.12 | 1.03 |
| CD200R1L (CD200 receptor 1 like) | 0.98 | 0.92 | 0.94 |
| PP2D1 (protein phosphatase 2C like domain containing 1) | 1.2 | 0.89 | 0.74 |
| PRSS48 (serine protease 48) | 1 | 0.62 | 0.62 |
| FBN1 (fibrillin 1) | 0.76 | 0.68 | 0.89 |
| LTB4R (leukotriene B4 receptor) | 1.42 | 0.88 | 0.62 |
| ZNF76 (zinc finger protein 76) | 1.16 | 0.96 | 0.83 |
| HORMAD2 (HORMA domain containing 2) | 1.04 | 1.02 | 0.98 |
| MTX3 (metaxin 3) | 0.98 | 1.02 | 1.04 |
| GJD3 (gap junction protein delta 3) | 0.74 | 0.58 | 0.78 |

Already shown: an excerpt of the list.
| target gene | CDH1-null / parental viability ratio | CDH1-null viability vs mock (fraction of mock) | parental viability vs mock (fraction of mock) |
| --- | --- | --- | --- |
| CD164L2 (CD164 molecule like 2) | 1 | 0.86 | 0.86 |
| EXT2 (exostosin glycosyltransferase 2) | 0.98 | 1.1 | 1.12 |
| SGCA (sarcoglycan alpha) | 0.8 | 0.4 | 0.5 |
| FAM111A (FAM111 trypsin like peptidase A) | 0.97 | 0.68 | 0.7 |
| INPP4B (inositol polyphosphate-4-phosphatase type II B) | 1.13 | 0.76 | 0.67 |
